In US5063245A, “Corticotropin-releasing factor antagonism compounds” (Nova Pharmaceutical Corporation, priority 1990, dated 1991):
Counter-ions that a name gives are not always drawn. For at least one compound, name, drawing or mass did not settle the structure.

Target: CRF-stimulated adenylate cyclase
Assay: Inhibition of CRF-stimulated adenylate cyclase activity (rat frontal cortex)
Type: biochemical
Conditions: 1 μM oCRF, 37° C., 10 minutes
Description: CRF antagonist activity is established by the ability of the compounds to antagonize CRF-stimulated adenylate cyclase activity, it having been established that CRF receptors are coupled to a guanine nucleotide regulatory protein that activates adenylate cyclase [G. Aguilera et al., Neuroendocrinology, 43, 79 (1986); G. Battaglia et al., Synapse, 1, 572 (1987)].
Male Sprague-Dawley rats (175-250 g) were sacrificed by decapitation, the frontal cortex was dissected and homogenized in 30 volumes (w/v) of ice-cold buffer (50 mM Tris HCl, 10 mM MgCl2, 2 mM EGTA; pH 7.2 at 22° C.). The homogenate was centrifuged at 40,000×g for 3 minutes (4° C.), the supernatant discarded and the pellet resuspended in original volume of fresh homogenization buffer. Following centrifugation at 40,000×g for 30 minutes, the resulting pellet was suspended to a tissue concentration of 20 mg original wet weight of tissue per mL (approximately 40-60 μg protein/mL). For determination of basal adenylate cyclase activity, assays are carried out at 37° C. for 10 minutes in 250 μL of buffer containing 100 mM Tris HCl, 10 mM MgCl2, 0.4 mM EGTA, 0.1% BSA, 1 mM isobutylmethylxanthine (IBMX), 3 units/tube phosphocreatine kinase, 5 mM creatine phosphate, 100 μM guanosine. Maximal stimulation of adenylate cyclase activity was accomplished by the addition of 10^-6 M oCRF. Stimulated enzyme activity generally represented a 75-95% increase over basal levels. Reactions were initiated by the addition of tissue and terminated by the addition of 150 μL of 50 mM Tris HCl, 45 mM ATP, 2% sodium dodecyl sulfate (SDS), and [^3 H] cAMP (approximately 40,000 dpm). […] Individual data points were expressed as pmoles of cAMP formed/10 minutes/mg protein. Protein content of tissue samples was measured using the BioRad method with bovine serum albumin serving as the standard.
Determination of antagonist activity was accomplished by addition of at least six concentrations of the compound (10^-8 -10^-4 M), evaluated in triplicate, in the presence of a maximally stimulating concentration of oCRF (1 μM). […]

[1] = Table II, Formula II (disulfides)

SMILES: Cc1c(SC#N)c(=O)n(-c2ccc3ccccc3c2)n1C [Formula I: 2-Naphthyl, CH3, CH3, SCN, 2,3-dimethyl-1-naphthyl-5-oxo-3-pyrazolin-4-yl thiocyanate]
- IC50 (Table I, Formula I): 3600 nM

SMILES: Cc1c(SSc2c(C)n(C)n(-c3ccc4ccccc4c3)c2=O)c(=O)n(-c2ccc3ccccc3c2)n1C [Formula II: 2-Naphthyl, CH3, CH3, HCl, 2,3-dimethyl-1-naphthyl-5-oxo-3-pyrazolin-4-yl disulfide]
- IC50 [1]: 1000 nM

SMILES: Cn1c(CN2CCOCC2)c(SSc2c(CN3CCOCC3)n(C)n(-c3ccccc3)c2=O)c(=O)n1-c1ccccc1 [Formula II: Ph, CH3, MorCH2, 2HCl, 2-methyl-3-morpholinylmethyl-5-oxo-1-phenyl-3-pyrazolin-4-yl disulfide]
- IC50 [1]: 1500 nM
